From publication PMC11211486
Results are given in words; binding and its absence hold for the method and conditions named. For some assays here: Tags and fused reporters may be left off the sequences shown.

Protein sequences, listed by entry. Tags and fused reporters are not part of them. Residues count along the entry.
UniProt P0AFB1, residues 20-294: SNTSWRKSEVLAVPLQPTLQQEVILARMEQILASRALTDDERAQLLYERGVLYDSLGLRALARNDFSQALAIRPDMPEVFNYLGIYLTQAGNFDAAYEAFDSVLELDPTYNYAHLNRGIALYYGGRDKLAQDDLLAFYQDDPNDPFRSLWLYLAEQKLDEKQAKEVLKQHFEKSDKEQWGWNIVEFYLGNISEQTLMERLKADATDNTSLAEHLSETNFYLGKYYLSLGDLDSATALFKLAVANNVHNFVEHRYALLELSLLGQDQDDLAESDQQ

Tests used:
[1] = target: T1, dN36-MepS (residues 37-162) (E. coli) (UniProt P0AFV4); experiment: condition: 30 µM MepS protein in the cell, 300 or 600 µM NlpI in the syringe; ITC; NlpI (or NlpI-ΔN) in the syringe, 300 or 600 µM, injected into 30 µM MepS protein in the cell; 20 °C; 20 mM HEPES pH 7.5, 300 mM NaCl, 2 mM β-mercaptoethanol; one set of sites model; three experiments and their average; both purified
T1 sequence: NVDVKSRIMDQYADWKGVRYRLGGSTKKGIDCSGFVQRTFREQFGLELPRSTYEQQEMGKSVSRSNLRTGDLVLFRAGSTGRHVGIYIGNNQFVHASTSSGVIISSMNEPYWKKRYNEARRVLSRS

[2] = target: T2, dN36-His, His-tagged dN36-MepS used as bait in the Ni-NTA pull-down (E. coli) (UniProt P0AFV4); experiment: pull-down; 19 µM His-tagged MepS protein and 2 µM untagged NlpI with Ni-NTA resin overnight at 4 °C; 500 mM NaCl, 25 mM NaPi, 5% glycerol, 5 mM β-mercaptoethanol, pH 8.0; wash 20 mM imidazole, elution 400 mM imidazole; Coomassie SDS-PAGE; both purified
T2 sequence: T1 sequence

“NlpI (residues 20-294, without the lipoprotein signal peptide) (from UniProt P0AFB1 20-294)” was tested, and the binding [1] was “no binding”.

In the case of “untagged NlpI (residues 20-294) used in the Ni-NTA pull-down (from UniProt P0AFB1 20-294)”, the binding [2] is reported as “no binding (tested: 19 µM MepS protein, 2 µM NlpI)”.
